# Experimental data from the supplement of paper PMC3682954.
# “And” between values parts separate entries of the source, which are not always exact repeats. Identical values can stand only once. Counter-ions that a name gives are not always drawn. ± gives the standard deviation of the averaged measurements. This is one part of the list. Most values come without repeats; read them as rough.
# Tested on: RAW 264.7
# Experiment: HMGB1-induced TNF-alpha production relative to HMGB1-stimulated control; higher = more TNF-alpha secretion (less inhibition)
# Conditions: stimulus: HMGB1 5 ug/ml, 18 h
# [1] = compound concentration: 1 ug/ml
Compound,HMGB1-induced TNF-alpha production (compound concentration: 3 uM),HMGB1-induced TNF-alpha production [1]
CCCCN1CCCC1CNC(=O)c1cc(C#N)c2ccccc2c1OC (centres undefined) [Nafadotride],100%,–
Cc1ccc([N+](=O)[O-])cc1S(=O)(=O)N(C)C,97.3%,–
O=S(=O)(O)c1cc(O)ccc1O [Ethamsylate],98.8%,–
Cc1c(O)c(=O)ccn1C,91.9% and 89.2%,–
CC(C)C[C@H](NP(=O)(O)O[C@H]1O[C@H](C)[C@@H](O)[C@H](O)[C@@H]1O)C(=O)N[C@@H](Cc1c[nH]c2ccccc12)C(=O)O [Phosphoramidon disodium],103%,–
c1ccc([C@H]2CN3CCSC3=N2)cc1 [Levamisole],112%,–
c1ccc([C@H]2CN3CCSC3=N2)cc1 [Levamisole hydrochloride],94%,–
c1ccc([C@H]2CN3CCSC3=N2)cc1,83.2%,–
CCC(=O)O[C@]1(C(=O)CCl)[C@@H](C)C[C@H]2[C@@H]3CCC4=CC(=O)C=C[C@]4(C)[C@@]3(F)[C@@H](O)C[C@@]21C,41.2%,–
CCC(=O)O[C@]1(C(=O)CCl)[C@@H](C)C[C@H]2[C@@H]3CCC4=CC(=O)C=C[C@]4(C)[C@@]3(F)[C@@H](O)C[C@@]21C [Clobetasol Propionate],46.4%,–
CCC(=O)O[C@]1(C(=O)CCl)[C@@H](C)C[C@H]2[C@@H]3CCC4=CC(=O)C=C[C@]4(C)[C@@]3(F)[C@@H](O)C[C@@]21C [Clobetasol propionate],35.6%,–
O=C1C[C@@H](c2ccc(O)cc2)Oc2cc(O)cc(O)c21 [Naringenin],–,77.2%
O=C1OCCN1/N=C/c1ccc([N+](=O)[O-])o1 [Furazolidone],103%,–
O=C1OCCN1/N=C/c1ccc([N+](=O)[O-])o1,73.9%,–
NC(=O)c1ccc([N+](=O)[O-])cc1Cl,97.8 ± 11%,–
COc1ccc(-c2cc3ncc(C)n3c(Nc3ncccc3C(N)=O)n2)cc1OC [BAY 61-3606 hydrochloride hydrate],86.9%,–
Oc1ccc([C@@H]2CNCc3sccc32)cc1O,105%,–
Nc1nc2n[nH]nc2c(=O)[nH]1 [Azaguanine-8],159%,–
Nc1nc2c(nc(Br)n2C2OC3COP(=O)(O)O[C@@H]3C2O)c(=O)[nH]1 (some centres undefined) [8-Bromo-cGMP sodium],94.2%,–
CN(C)c1nc(N(C)C)nc(N(C)C)n1 [Altretamine],79.5 ± 21%,–
CN(C)c1nc(N(C)C)nc(N(C)C)n1,95.2 ± 1.5%,–
CC(C)NCC(O)c1ccc2ccccc2c1 (centres undefined) [Pronethalol],91.5%,–
CC(C)NCC(O)c1ccc2ccccc2c1 (centres undefined) [Pronethalol hydrochloride],102%,–
CC(C)NCC(O)c1ccc2ccccc2c1 (centres undefined),86.8%,–
O=C(O)c1cc(-c2ccccc2)nc2ccccc12,119%,–

Compound,HMGB1-induced TNF-alpha production (compound concentration: 3 uM),HMGB1-induced TNF-alpha production [1]
CC(=O)O[C@]1(C(C)=O)CC[C@H]2[C@@H]3C[C@H](C)C4=CC(=O)CC[C@]4(C)[C@H]3CC[C@@]21C [Medroxyprogesterone 17-Acetate],96.9%,–
CC(=O)O[C@]1(C(C)=O)CC[C@H]2[C@@H]3C[C@H](C)C4=CC(=O)CC[C@]4(C)[C@H]3CC[C@@]21C,87%,–
"C[C@H]1C[C@@H]2[C@H]([C@@H](O)C[C@@]3(C)[C@H]2CC[C@]3(O)C(=O)CO)[C@@]2(C)C=CC(=O)C=C12 [Methylprednisolone, 6-alpha]",31.1%,–
C[C@H]1C[C@@H]2[C@H]([C@@H](O)C[C@@]3(C)[C@H]2CC[C@]3(O)C(=O)CO)[C@@]2(C)C=CC(=O)C=C12,42.2%,–
C[C@H]1C[C@@H]2[C@H]([C@@H](O)C[C@@]3(C)[C@H]2CC[C@]3(O)C(=O)CO)[C@@]2(C)C=CC(=O)C=C12 [Methylprednisolone],40.7%,–
NC(=O)C(c1ccccc1)(c1ccccc1)[C@@H]1CCN(CCc2ccc3c(c2)CCO3)C1,93.5%,–
CCCNCC(O)COc1ccccc1C(=O)CCc1ccccc1 (centres undefined) [Propafenone hydrochloride],80.6 ± 44%,–
CCCNCC(O)COc1ccccc1C(=O)CCc1ccccc1 (centres undefined) [Propafenone],88.8%,–
CCCNCC(O)COc1ccccc1C(=O)CCc1ccccc1 (centres undefined),79.1%,–
CCCCCCCCCCCCCCCCCC(=O)OC(CC(=O)O)C[N+](C)(C)C (racemic) [DL-Stearoylcarnitine chloride],98.1%,–
COc1cc(/C=C(\C#N)C(=O)Nc2nnc(C(F)(F)F)s2)ccc1OCc1ccc(C(F)(F)F)cc1C(F)(F)F,97.9%,–
O=[N+]([O-])c1cccc2cn[nH]c12,102 ± 5.7%,–
O=[N+]([O-])c1cccc2cn[nH]c12 [7-Nitroindazole],118%,–
COc1ccccc1OCC(O)CN1CCN(CC(=O)Nc2c(C)cccc2C)CC1 (centres undefined) [Ranolazine],112 ± 41%,–
COc1ccccc1OCC(O)CN1CCN(CC(=O)Nc2c(C)cccc2C)CC1 (centres undefined) [Ranolazine dihydrochloride],108 ± 2.8%,–
COc1ccccc1OCC(O)CN1CCN(CC(=O)Nc2c(C)cccc2C)CC1 (centres undefined),102%,–
COc1cc([C@@H]2c3cc4c(cc3[C@@H](O[C@@H]3O[C@@H]5CO[C@@H](C)O[C@H]5[C@H](O)[C@H]3O)[C@H]3COC(=O)[C@H]23)OCO4)cc(OC)c1O [Etoposide],99.1 ± 8.1%,–
COc1cc([C@@H]2c3cc4c(cc3[C@@H](O[C@@H]3O[C@@H]5CO[C@@H](C)O[C@H]5[C@H](O)[C@H]3O)[C@H]3COC(=O)[C@H]23)OCO4)cc(OC)c1O [Etoposide; VP-16-213],–,99.4%
COc1cc([C@@H]2c3cc4c(cc3[C@@H](O[C@@H]3O[C@@H]5CO[C@@H](C)O[C@H]5[C@H](O)[C@H]3O)[C@H]3COC(=O)[C@H]23)OCO4)cc(OC)c1O,106 ± 2.4%,–
O=c1cc(-c2ccccc2O)oc2c1ccc1ccccc12,–,51.6%
CCn1ccnc1CC1COc2ccccc2O1 (centres undefined) [Imiloxan hydrochloride],88.9%,–
O=c1cc(-c2cccc(O)c2)oc2cc(O)ccc12,–,75.7%
CNC(C)C1CCC(N)C(OC2C(N)CC(N)C(OC3OCC(C)(O)C(NC)C3O)C2O)O1 (centres undefined) [Gentamycin],99.9%,–
O=C1CC2(CCCC2)CC(=O)N1CCCCN1CCN(c2ncccn2)CC1 [Buspirone],83.1%,–
O=C1CC2(CCCC2)CC(=O)N1CCCCN1CCN(c2ncccn2)CC1,86.6%,–

Compound,HMGB1-induced TNF-alpha production (compound concentration: 3 uM),HMGB1-induced TNF-alpha production [1]
O=C1CC2(CCCC2)CC(=O)N1CCCCN1CCN(c2ncccn2)CC1 [Buspirone hydrochloride],83.4 ± 15%,–
CC[C@H]1OC(=O)[C@H](C)[C@@H](O[C@H]2C[C@@](C)(OC)[C@@H](O)[C@H](C)O2)[C@H](C)[C@@H](O[C@@H]2O[C@H](C)C[C@H](N(C)C)[C@H]2O)[C@](C)(O)C[C@@H](C)[C@@H]2N[C@@H](COCCOC)O[C@H]([C@H]2C)[C@]1(C)O,72.5%,–
CC[C@H]1OC(=O)[C@H](C)[C@@H](O[C@H]2C[C@@](C)(OC)[C@@H](O)[C@H](C)O2)[C@H](C)[C@@H](O[C@@H]2O[C@H](C)C[C@H](N(C)C)[C@H]2O)[C@](C)(O)C[C@@H](C)[C@@H]2N[C@@H](COCCOC)O[C@H]([C@H]2C)[C@]1(C)O [Dirithromycin],71.5%,–
Cc1cc(C)c(/C=C2\C(=O)Nc3ccccc32)[nH]1,87.5%,–
c1ccc(C(NCc2cccnc2)(c2ccccc2)c2ccccc2)cc1,75.8%,–
Cc1cccc(C#Cc2ccccc2)n1 [6-Methyl-2-(phenylethynyl)pyridine hydrochloride],113%,–
"N[C@H](C(=O)O)c1cc(O)cc(O)c1 [(S)-3,5-Dihydroxyphenylglycine]",90.8%,–
C[C@H](O)C(=O)Nc1c(I)c(C(=O)NC(CO)CO)c(I)c(C(=O)NC(CO)CO)c1I [Iopamidol],113%,–
"COc1ccc2c(c1)C(=O)CC(c1cccc(OC)c1OC)O2 (centres undefined) [2',3',6-Trimethoxyflavanone]",–,69.3%
O=c1cc[nH]c(=S)[nH]1,83%,–
O=c1cc[nH]c(=S)[nH]1 [2-Thiouracile],–,62.1%
CC(C)CC(=O)N[C@H](C(=O)N[C@H](C(=O)N[C@@H](CC(C)C)[C@@H](O)CC(=O)N[C@@H](C)C(=O)N[C@@H](CC(C)C)[C@@H](O)CC(=O)O)C(C)C)C(C)C [Pepstatin A],86.6%,–
COc1c(-c2ccc(O)c(O)c2)oc2cc(O)cc(O)c2c1=O [Quercetin 3-methyl ether],–,76.9%
O=c1cc(-c2ccc(O)c(O)c2)oc2cc(O[C@@H]3O[C@H](CO)[C@@H](O)[C@H](O)[C@H]3O)cc(O)c12 [Luteolin-7-glucoside],–,69.8%
Cc1cn(C2OC(CO)C(O)C2O)c(=S)[nH]c1=O (centres undefined) [5-Methyl-2-thiouridine],–,80%
COc1ccc(C(=O)Nc2ccn([C@H]3C[C@H](O)[C@@H](CO)O3)c(=O)n2)cc1 [N4-Anisoyl-2'-deoxycytidine],–,95.9%
C[C@@H]1C[C@H]2[C@@H]3C[C@H](F)C4=CC(=O)C(Cl)=C[C@]4(C)[C@@]3(F)[C@@H](O)C[C@]2(C)[C@@]1(O)C(=O)CO,39.5%,–
C=CCN1CCc2c(cc(O)c(O)c2Br)[C@@H](c2ccccc2)C1 [R(+)-6-Bromo-APB hydrobromide],94.4%,–
N[C@@H](CS(=O)(=O)O)C(=O)O [L-Cysteic acid monohydrate],–,67.5%
O=C(NCC(O)CO)c1c(I)c(C(=O)NCC(O)CO)c(I)c(N(CCO)C(=O)CO)c1I (centres undefined) [Ioversol],110%,–
CO/N=C(\C(=O)N[C@@H]1C(=O)N2C(C(=O)O)=C(COC(N)=O)CS[C@H]12)c1ccco1 [Cefuroxime sodium salt],80.5%,–
CO/N=C(\C(=O)N[C@@H]1C(=O)N2C(C(=O)O)=C(COC(N)=O)CS[C@H]12)c1ccco1,97%,–
Nc1ccc(S(=O)(=O)Nc2ccnn2-c2ccccc2)cc1 [Sulfaphenazole],89 ± 33%,–
Nc1ccc(S(=O)(=O)Nc2ccnn2-c2ccccc2)cc1,85.6%,–
